{"source": "paper PMC6148238", "key": {"[1]": {"target": "T1, Rab3A (human (endogenous in Hep3B)) (UniProt P20336)", "T1 sequence": "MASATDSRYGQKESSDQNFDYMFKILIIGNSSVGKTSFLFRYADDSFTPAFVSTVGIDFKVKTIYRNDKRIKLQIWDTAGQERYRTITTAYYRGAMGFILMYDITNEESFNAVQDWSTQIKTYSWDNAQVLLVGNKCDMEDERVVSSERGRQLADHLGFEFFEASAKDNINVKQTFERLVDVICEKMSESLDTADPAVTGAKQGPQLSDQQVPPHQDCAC", "experiment": "co-IP; endogenous proteins in Hep3B cells with or without OGT knockdown; Protein G IP Kit; Western blot"}, "Rab3A-flag": {"target": "T2, Rab3A-flag (UniProt P20336)", "T2 sequence": "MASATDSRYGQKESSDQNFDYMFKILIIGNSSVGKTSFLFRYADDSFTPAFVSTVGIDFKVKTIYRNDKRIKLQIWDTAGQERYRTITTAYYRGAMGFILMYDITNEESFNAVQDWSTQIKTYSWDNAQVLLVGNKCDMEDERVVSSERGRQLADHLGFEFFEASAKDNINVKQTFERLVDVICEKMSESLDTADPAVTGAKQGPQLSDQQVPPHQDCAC", "experiment": "co-IP; transfected OGT-myc and Rab3A-flag in Hep3B cells; Protein G IP Kit; Western blot"}, "GST-Rab3A": {"target": "T3, GST-Rab3A (UniProt P20336)", "T3 sequence": "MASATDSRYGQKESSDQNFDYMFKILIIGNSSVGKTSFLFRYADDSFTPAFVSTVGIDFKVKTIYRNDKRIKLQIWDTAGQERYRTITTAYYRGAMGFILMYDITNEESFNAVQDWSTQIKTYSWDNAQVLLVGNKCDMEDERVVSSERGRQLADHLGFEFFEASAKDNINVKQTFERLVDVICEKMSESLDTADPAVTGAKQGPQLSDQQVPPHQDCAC", "experiment": "pull-down; GST-Rab3A on beads (MagneGST pull-down system), [35S]Met-labelled in vitro translated OGT; SDS-PAGE and autoradiography; only the target purified"}}, "note": "Results are given in words; binding and its absence hold for the method and conditions named. Binding seen in cells or lysates may run through a third protein. Some results given as binding are weak or reduced against the parent protein; the word gives no strength. For part of these data: Tags and fused reporters may be left off the sequences shown."}
{"binder": "O-GlcNAc transferase (OGT) (enzyme, UniProt O15294 1-1046) MASSVGNVADSTEPTKRMLSFQGLAELAHREYQAGDFEAAERHCMQLWRQEPDNTGVLLLLSSIHFQCRRLDRSAHFSTLAIKQNPLLAEAYSNLGNVYKERGQLQEAIEHYRHALRLKPDFIDGYINLAAALVAAGDMEGAVQAYVSALQYNPDLYCVRSDLGNLLKALGRLEEAKACYLKAIETQPNFAVAWSNLGCVFNAQGEIWLAIHHFEKAVTLDPNFLDAYINLGNVLKEARIFDRAVAAYLRALSLSPNHAVVHGNLACVYYEQGLIDLAIDTYRRAIELQPHFPDAYCNLANALKEKGSVAEAEDCYNTALRLCPTHADSLNNLANIKREQGNIEEAVRLYRKALEVFPEFAAAHSNLASVLQQQGKLQEALMHYKEAIRISPTFADAYSNMGNTLKEMQDVQGALQCYTRAIQINPAFADAHSNLASIHKDSGNIPEAIASYRTALKLKPDFPDAYCNLAHCLQIVCDWTDYDERMKKLVSIVADQLEKNRLPSVHPHHSMLYPLSHGFRKAIAERHGNLCLDKINVLHKPPYEHPKDLKLSDGRLRVGYVSSDFGNHPTSHLMQSIPGMHNPDKFEVFCYALSPDDGTNFRVKVMAEANHFIDLSQIPCNGKAADRIHQDGIHILVNMNGYTKGARNELFALRPAPIQAMWLGYPGTSGALFMDYIITDQETSPAEVAEQYSEKLAYMPHTFFIGDHANMFPHLKKKAVIDFKSNGHIYDNRIVLNGIDLKAFLDSLPDVKIVKMKCPDGGDNADSSNTALNMPVIPMNTIAEAVIEMINRGQIQITINGFSISNGLATTQINNKAATGEEVPRTIIVTTRSQYGLPEDAIVYCNFNQLYKIDPSTLQMWANILKRVPNSVLWLLRFPAVGEPNIQQYAQNMGLPQNRIIFSPVAPKEEHVRRGQLADVCLDTPLCNGHTTGMDVLWAGTPMVTMPGETLASRVAASQLTCLGCLELIAKNRQEYEDIAVKLGTDLEYLKKVRGKVWKQRISSPLFNTKQYTMELERLYLQMWEHYAAGNKPDHMIKPVEVTESA", "values": [{"measurement": "binding", "setting": "[1]", "result": "binds"}]}
{"binder": "OGT-myc (enzyme, UniProt O15294 1-1046) MASSVGNVADSTEPTKRMLSFQGLAELAHREYQAGDFEAAERHCMQLWRQEPDNTGVLLLLSSIHFQCRRLDRSAHFSTLAIKQNPLLAEAYSNLGNVYKERGQLQEAIEHYRHALRLKPDFIDGYINLAAALVAAGDMEGAVQAYVSALQYNPDLYCVRSDLGNLLKALGRLEEAKACYLKAIETQPNFAVAWSNLGCVFNAQGEIWLAIHHFEKAVTLDPNFLDAYINLGNVLKEARIFDRAVAAYLRALSLSPNHAVVHGNLACVYYEQGLIDLAIDTYRRAIELQPHFPDAYCNLANALKEKGSVAEAEDCYNTALRLCPTHADSLNNLANIKREQGNIEEAVRLYRKALEVFPEFAAAHSNLASVLQQQGKLQEALMHYKEAIRISPTFADAYSNMGNTLKEMQDVQGALQCYTRAIQINPAFADAHSNLASIHKDSGNIPEAIASYRTALKLKPDFPDAYCNLAHCLQIVCDWTDYDERMKKLVSIVADQLEKNRLPSVHPHHSMLYPLSHGFRKAIAERHGNLCLDKINVLHKPPYEHPKDLKLSDGRLRVGYVSSDFGNHPTSHLMQSIPGMHNPDKFEVFCYALSPDDGTNFRVKVMAEANHFIDLSQIPCNGKAADRIHQDGIHILVNMNGYTKGARNELFALRPAPIQAMWLGYPGTSGALFMDYIITDQETSPAEVAEQYSEKLAYMPHTFFIGDHANMFPHLKKKAVIDFKSNGHIYDNRIVLNGIDLKAFLDSLPDVKIVKMKCPDGGDNADSSNTALNMPVIPMNTIAEAVIEMINRGQIQITINGFSISNGLATTQINNKAATGEEVPRTIIVTTRSQYGLPEDAIVYCNFNQLYKIDPSTLQMWANILKRVPNSVLWLLRFPAVGEPNIQQYAQNMGLPQNRIIFSPVAPKEEHVRRGQLADVCLDTPLCNGHTTGMDVLWAGTPMVTMPGETLASRVAASQLTCLGCLELIAKNRQEYEDIAVKLGTDLEYLKKVRGKVWKQRISSPLFNTKQYTMELERLYLQMWEHYAAGNKPDHMIKPVEVTESA", "values": [{"measurement": "binding", "setting": "Rab3A-flag", "result": "binds"}]}
{"binder": "OGT protein synthesized in TNT reaction (enzyme, UniProt O15294 1-1046, [35S]methionine label) MASSVGNVADSTEPTKRMLSFQGLAELAHREYQAGDFEAAERHCMQLWRQEPDNTGVLLLLSSIHFQCRRLDRSAHFSTLAIKQNPLLAEAYSNLGNVYKERGQLQEAIEHYRHALRLKPDFIDGYINLAAALVAAGDMEGAVQAYVSALQYNPDLYCVRSDLGNLLKALGRLEEAKACYLKAIETQPNFAVAWSNLGCVFNAQGEIWLAIHHFEKAVTLDPNFLDAYINLGNVLKEARIFDRAVAAYLRALSLSPNHAVVHGNLACVYYEQGLIDLAIDTYRRAIELQPHFPDAYCNLANALKEKGSVAEAEDCYNTALRLCPTHADSLNNLANIKREQGNIEEAVRLYRKALEVFPEFAAAHSNLASVLQQQGKLQEALMHYKEAIRISPTFADAYSNMGNTLKEMQDVQGALQCYTRAIQINPAFADAHSNLASIHKDSGNIPEAIASYRTALKLKPDFPDAYCNLAHCLQIVCDWTDYDERMKKLVSIVADQLEKNRLPSVHPHHSMLYPLSHGFRKAIAERHGNLCLDKINVLHKPPYEHPKDLKLSDGRLRVGYVSSDFGNHPTSHLMQSIPGMHNPDKFEVFCYALSPDDGTNFRVKVMAEANHFIDLSQIPCNGKAADRIHQDGIHILVNMNGYTKGARNELFALRPAPIQAMWLGYPGTSGALFMDYIITDQETSPAEVAEQYSEKLAYMPHTFFIGDHANMFPHLKKKAVIDFKSNGHIYDNRIVLNGIDLKAFLDSLPDVKIVKMKCPDGGDNADSSNTALNMPVIPMNTIAEAVIEMINRGQIQITINGFSISNGLATTQINNKAATGEEVPRTIIVTTRSQYGLPEDAIVYCNFNQLYKIDPSTLQMWANILKRVPNSVLWLLRFPAVGEPNIQQYAQNMGLPQNRIIFSPVAPKEEHVRRGQLADVCLDTPLCNGHTTGMDVLWAGTPMVTMPGETLASRVAASQLTCLGCLELIAKNRQEYEDIAVKLGTDLEYLKKVRGKVWKQRISSPLFNTKQYTMELERLYLQMWEHYAAGNKPDHMIKPVEVTESA", "values": [{"measurement": "binding", "setting": "GST-Rab3A", "result": "binds"}]}
